Test results: the supplement of paper PMC10849652
Some of the results follow.

Sequences of proteins named here, by UniProt entry; tags and fusion partners are left off. A change or cut given only in a name is not applied to a line headed by its entry.
UniProt Q9Y5Y5: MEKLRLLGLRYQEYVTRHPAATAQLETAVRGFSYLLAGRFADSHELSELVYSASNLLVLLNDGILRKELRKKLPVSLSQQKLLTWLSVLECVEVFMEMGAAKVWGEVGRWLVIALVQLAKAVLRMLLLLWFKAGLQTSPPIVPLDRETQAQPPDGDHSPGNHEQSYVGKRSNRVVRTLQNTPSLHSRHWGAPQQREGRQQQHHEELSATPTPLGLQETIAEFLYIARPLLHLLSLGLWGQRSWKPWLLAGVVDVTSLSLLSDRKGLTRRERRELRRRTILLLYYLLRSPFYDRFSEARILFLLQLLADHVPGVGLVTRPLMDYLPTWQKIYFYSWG
UniProt Q15121, whole entry, looked up: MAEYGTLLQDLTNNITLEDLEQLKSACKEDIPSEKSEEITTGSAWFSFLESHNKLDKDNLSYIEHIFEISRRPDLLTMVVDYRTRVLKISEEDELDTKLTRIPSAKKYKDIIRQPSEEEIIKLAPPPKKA
UniProt Q15004: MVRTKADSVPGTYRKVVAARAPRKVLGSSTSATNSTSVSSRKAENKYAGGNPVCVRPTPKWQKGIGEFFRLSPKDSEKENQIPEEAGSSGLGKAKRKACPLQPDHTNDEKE
UniProt P11498: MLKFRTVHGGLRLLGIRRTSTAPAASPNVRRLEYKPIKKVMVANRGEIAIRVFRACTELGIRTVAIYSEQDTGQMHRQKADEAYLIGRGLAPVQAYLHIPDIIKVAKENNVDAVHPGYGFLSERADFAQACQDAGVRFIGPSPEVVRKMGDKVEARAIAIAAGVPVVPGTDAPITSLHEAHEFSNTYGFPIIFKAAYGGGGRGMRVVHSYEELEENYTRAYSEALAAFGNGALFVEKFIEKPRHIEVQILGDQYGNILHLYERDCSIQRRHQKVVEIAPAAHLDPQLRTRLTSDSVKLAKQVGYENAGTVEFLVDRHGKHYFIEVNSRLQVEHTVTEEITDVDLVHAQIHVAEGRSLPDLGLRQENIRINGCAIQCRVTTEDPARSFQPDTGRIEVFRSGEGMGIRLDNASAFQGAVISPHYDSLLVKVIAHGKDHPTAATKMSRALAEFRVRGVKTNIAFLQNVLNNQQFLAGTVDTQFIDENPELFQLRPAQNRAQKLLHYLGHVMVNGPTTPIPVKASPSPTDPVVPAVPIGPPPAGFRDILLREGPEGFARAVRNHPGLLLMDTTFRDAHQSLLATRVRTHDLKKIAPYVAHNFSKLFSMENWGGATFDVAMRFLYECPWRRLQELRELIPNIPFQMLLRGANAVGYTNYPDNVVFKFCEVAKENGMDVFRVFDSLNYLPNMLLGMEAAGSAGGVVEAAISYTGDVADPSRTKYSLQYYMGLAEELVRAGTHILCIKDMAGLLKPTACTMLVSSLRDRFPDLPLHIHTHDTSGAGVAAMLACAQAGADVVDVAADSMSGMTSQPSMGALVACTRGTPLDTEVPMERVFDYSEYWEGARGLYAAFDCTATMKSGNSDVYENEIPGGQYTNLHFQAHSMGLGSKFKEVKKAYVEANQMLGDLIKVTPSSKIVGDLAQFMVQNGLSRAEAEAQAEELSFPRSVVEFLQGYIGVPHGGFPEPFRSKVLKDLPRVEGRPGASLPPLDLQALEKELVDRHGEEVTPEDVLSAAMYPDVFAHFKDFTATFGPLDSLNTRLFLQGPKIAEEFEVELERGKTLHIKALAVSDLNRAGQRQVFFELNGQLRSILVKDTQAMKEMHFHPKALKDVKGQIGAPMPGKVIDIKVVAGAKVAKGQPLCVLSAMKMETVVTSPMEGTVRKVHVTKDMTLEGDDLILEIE
UniProt Q96HC4: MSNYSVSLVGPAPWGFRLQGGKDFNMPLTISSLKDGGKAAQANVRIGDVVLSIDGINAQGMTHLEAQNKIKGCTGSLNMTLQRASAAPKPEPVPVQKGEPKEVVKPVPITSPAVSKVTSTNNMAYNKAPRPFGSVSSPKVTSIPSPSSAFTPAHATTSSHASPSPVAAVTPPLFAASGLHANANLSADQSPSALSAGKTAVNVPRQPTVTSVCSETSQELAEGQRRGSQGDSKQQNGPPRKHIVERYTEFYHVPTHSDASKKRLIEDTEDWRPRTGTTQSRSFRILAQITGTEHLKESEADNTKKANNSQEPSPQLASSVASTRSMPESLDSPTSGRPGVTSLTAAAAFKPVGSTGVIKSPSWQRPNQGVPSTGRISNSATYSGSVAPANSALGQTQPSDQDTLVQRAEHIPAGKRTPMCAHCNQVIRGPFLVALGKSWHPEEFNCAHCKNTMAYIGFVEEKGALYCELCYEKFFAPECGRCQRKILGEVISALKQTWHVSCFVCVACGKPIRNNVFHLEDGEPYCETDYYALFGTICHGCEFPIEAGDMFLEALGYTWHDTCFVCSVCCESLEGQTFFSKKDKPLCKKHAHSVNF
UniProt Q5EBL8: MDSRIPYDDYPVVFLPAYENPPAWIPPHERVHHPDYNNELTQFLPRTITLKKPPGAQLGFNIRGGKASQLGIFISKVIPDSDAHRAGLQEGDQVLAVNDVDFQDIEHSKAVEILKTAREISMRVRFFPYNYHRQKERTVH
UniProt Q96RG2: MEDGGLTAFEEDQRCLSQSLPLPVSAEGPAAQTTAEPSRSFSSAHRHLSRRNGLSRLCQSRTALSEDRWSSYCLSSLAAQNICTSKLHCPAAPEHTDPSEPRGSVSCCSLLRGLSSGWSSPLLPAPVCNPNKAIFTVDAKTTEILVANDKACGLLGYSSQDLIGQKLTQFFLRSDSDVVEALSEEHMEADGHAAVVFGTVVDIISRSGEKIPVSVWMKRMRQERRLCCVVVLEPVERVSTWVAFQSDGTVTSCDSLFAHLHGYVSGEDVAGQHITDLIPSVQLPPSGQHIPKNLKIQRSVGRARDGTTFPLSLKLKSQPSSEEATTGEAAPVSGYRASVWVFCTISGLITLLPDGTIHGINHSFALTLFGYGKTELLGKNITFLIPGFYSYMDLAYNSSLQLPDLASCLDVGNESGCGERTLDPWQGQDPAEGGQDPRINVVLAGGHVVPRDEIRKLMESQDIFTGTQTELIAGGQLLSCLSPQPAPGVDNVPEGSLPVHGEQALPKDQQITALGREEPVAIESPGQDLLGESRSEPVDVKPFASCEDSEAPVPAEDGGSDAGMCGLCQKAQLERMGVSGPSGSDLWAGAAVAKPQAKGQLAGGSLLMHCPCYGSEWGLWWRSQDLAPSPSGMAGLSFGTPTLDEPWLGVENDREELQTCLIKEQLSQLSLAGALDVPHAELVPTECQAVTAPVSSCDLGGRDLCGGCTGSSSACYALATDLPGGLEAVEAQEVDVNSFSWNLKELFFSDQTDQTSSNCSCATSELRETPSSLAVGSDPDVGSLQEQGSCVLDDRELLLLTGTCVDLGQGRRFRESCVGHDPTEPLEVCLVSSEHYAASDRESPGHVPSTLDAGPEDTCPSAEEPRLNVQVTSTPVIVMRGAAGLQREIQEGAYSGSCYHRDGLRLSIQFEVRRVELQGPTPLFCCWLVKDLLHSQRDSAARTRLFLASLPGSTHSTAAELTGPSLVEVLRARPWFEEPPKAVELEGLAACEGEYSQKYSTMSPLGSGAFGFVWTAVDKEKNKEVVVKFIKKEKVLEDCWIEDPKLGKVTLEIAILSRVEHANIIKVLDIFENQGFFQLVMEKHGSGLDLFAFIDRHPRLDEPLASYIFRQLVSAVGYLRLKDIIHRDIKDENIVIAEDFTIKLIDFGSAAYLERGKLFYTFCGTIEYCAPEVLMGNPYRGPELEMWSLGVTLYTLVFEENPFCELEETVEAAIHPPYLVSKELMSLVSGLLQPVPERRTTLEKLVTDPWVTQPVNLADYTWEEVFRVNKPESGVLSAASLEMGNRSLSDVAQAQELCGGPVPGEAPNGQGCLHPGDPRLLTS
UniProt Q8WUM4: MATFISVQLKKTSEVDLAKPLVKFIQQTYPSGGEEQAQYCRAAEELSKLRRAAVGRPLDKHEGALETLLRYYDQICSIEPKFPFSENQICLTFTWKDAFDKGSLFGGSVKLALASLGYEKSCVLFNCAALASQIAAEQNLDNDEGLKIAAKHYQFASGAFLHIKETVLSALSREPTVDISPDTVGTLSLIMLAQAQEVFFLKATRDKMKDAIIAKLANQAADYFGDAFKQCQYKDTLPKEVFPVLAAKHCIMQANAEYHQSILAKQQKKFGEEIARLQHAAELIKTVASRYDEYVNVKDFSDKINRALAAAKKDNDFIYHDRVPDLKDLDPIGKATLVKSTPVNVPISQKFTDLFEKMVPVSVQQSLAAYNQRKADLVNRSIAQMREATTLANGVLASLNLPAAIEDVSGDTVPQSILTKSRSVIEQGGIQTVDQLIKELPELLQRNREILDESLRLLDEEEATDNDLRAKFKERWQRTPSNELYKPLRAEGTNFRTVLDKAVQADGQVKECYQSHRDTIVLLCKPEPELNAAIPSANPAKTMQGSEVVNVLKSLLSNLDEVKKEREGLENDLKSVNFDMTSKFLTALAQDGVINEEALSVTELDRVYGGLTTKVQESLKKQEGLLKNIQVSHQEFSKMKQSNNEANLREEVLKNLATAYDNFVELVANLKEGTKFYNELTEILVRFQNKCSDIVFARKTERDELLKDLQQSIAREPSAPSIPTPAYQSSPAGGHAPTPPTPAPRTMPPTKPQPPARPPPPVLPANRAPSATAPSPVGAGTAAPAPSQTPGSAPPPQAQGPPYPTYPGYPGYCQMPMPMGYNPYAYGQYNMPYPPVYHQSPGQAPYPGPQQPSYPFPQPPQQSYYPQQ
UniProt P08559, whole entry, looked up: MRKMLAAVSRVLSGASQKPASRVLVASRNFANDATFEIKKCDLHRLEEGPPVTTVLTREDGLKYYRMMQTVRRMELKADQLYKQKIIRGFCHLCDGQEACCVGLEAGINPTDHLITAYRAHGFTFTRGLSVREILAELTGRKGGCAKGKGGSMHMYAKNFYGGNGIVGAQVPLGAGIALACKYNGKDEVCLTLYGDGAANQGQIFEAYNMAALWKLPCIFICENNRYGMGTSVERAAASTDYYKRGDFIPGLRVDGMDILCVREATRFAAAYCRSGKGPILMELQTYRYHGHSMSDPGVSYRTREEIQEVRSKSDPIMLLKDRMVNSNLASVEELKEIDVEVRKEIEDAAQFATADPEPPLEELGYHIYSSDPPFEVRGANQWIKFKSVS
UniProt Q8N0Y7: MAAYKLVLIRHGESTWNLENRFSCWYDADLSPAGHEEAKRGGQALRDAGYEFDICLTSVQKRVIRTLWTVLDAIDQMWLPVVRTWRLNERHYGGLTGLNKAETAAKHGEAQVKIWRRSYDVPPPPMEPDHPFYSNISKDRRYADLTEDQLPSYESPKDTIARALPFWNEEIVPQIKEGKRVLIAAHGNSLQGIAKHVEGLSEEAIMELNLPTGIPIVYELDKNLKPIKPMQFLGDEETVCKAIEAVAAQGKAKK
UniProt P13667: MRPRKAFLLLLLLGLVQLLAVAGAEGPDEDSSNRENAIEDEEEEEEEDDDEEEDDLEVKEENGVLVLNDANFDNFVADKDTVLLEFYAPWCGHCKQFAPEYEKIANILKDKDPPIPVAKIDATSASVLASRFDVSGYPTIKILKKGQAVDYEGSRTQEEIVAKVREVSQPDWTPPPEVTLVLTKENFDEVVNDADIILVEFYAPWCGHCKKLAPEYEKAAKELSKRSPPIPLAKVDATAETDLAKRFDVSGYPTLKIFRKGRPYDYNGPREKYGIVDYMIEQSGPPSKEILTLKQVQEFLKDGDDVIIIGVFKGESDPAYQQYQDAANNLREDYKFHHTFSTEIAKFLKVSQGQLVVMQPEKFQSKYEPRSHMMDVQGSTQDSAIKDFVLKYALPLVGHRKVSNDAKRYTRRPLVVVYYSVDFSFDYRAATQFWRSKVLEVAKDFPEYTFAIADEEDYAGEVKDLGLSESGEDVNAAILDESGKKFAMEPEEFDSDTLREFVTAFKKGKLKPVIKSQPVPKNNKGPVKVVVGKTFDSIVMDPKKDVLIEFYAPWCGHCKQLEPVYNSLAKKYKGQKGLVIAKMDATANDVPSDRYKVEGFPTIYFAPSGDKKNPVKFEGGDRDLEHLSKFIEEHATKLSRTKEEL
UniProt Q15366, whole entry, looked up: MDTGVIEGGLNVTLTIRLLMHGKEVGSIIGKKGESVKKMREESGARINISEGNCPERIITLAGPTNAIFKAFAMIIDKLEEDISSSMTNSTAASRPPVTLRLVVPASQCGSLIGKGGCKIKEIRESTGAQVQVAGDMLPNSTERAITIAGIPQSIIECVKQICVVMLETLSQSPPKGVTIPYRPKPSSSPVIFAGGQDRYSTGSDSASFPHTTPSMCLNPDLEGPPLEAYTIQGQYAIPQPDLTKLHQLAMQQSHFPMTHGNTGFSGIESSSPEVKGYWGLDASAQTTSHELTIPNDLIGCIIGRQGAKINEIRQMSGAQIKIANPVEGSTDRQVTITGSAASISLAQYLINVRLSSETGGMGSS
UniProt O75340: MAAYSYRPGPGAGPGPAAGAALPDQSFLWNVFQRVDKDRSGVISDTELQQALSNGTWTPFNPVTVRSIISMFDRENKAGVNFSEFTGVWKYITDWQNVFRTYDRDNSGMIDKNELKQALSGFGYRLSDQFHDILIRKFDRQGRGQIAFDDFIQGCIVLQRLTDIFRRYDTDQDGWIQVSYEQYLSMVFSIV

Columns and labels:
Experiment in all cases: log2 fold change, soluble protein after heating vs DMSO (PISA); higher = thermal stabilisation; K562 lysate, 10 uM; active = over 0.2 and 3.5 SD of the protein, either way, in both replicates (recomputed)
erlotinib = compound: C#Cc1cccc(Nc2ncnc3cc(OCCOC)c(OCCOC)cc23)c1 [erlotinib]
In short: (§1)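 Quantification was by TMTpro 16plex LC-MS/MS with equalised channel sums, applied to the supernatant after 21,000xg for 90 min. Samples were crude K562 extract at 1 mg/mL protein in PBS pH 7.4 with 1 mM MgCl2, treated with 10 μM compound for 30 min, heated for 3 min across 48°C-58°C, pooled and brought to 0.5% NP-40 at 4°C. Values are log-two fold changes in thermal stability relative to solvent controls, from duplicates.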

[1] = compound: C/C(=N\NC(=O)C1=CC(=CC=C1)S(=O)(=O)N2CCOCC2)/C3=C(C=CC(=C3)Cl)O
In short: as §1

[2] = compound: C1=CC(=CC=C1C2=NC3=C(N2)C=C(C=C3)C(=O)N)OC4=CC=C(C=C4)Cl
In short: as §1

[3] = compound: C1=CC2=C(C=CC(=C2)/C=C\3/C(=O)NC(=NCC4=CC=CS4)S3)N=C1
In short: as §1

[4] = compound: C1=CC2=NC=CN=C2C=C1/C=C/3\C(=O)NC(=O)S3
In short: as §1

[5] = compound: C1=CC=C(C=C1)C2=NC(=C(N2)C3=CC=NC=C3)C4=CC(=C(C=C4)Cl)O
In short: as §1

[6] = compound: C1=CC=C2C(=C1)C3=NNC4=CC=CC(=C43)C2=O
In short: as §1

[7] = compound: C1CCN(C1)C(=O)NC2=CC=CC(=C2)NC3=NC=C(C(=N3)NCCC4=CN=CN4)Br
In short: as §1

[8] = compound: C1CN(CCC1(CC2=CC=C(C=C2)Cl)N)C3=NC=NC4=C3C=CN4
In short: as §1

IRAK-1-4 Inhibitor I = compound: C1COCCN1CCN2C3=CC=CC=C3N=C2NC(=O)C4=CC(=CC=C4)[N+](=O)[O-] [IRAK-1-4 Inhibitor I]
In short: as §1

Measured: log2 fold change

PAXIP1 (UniProt Q6ZW49)
inactive: erlotinib -0.049 | [1] -0.013 | [2] -0.069 | [3] 0.046 | [4] -0.09 | [5] 0.017 | [6] 0.029 | [7] -0.003 | [8] 0.017 | IRAK-1-4 Inhibitor I -0.009

PEX16 isoform 2 (UniProt Q9Y5Y5)
inactive: erlotinib 0.032 | [1] 0.233 | [2] -0.173 | [3] 0.048 | [4] -0.09 | [5] -0.06 | [6] 0.01 | [7] 0.119 | [8] -0.114 | IRAK-1-4 Inhibitor I -0.005

PDCL (UniProt Q13371)
inactive: erlotinib -0.047 | [1] -0.071 | [2] 0.096 | [3] 0.047 | [4] -0.003 | [5] -0.009 | [6] -0.085 | [7] 0.028 | [8] 0.057 | IRAK-1-4 Inhibitor I 0.012

PEA15 isoform 2 (UniProt Q15121)
inactive: erlotinib -0.014 | [1] -0.028 | [2] 0.034 | [3] 0.032 | [4] -0.085 | [5] -0.011 | [6] -0.039 | [7] 0.001 | [8] 0.025 | IRAK-1-4 Inhibitor I 0.007

PELO (UniProt Q9BRX2)
inactive: erlotinib 0 | [1] -0.047 | [2] -0.058 | [3] -0.014 | [4] -0.002 | [5] 0 | [6] -0.038 | [7] -0.021 | [8] -0.049 | IRAK-1-4 Inhibitor I 0

PGAM5 (UniProt Q96HS1)
inactive: erlotinib -0.03 | [1] -0.002 | [2] -0.025 | [3] 0.032 | [4] -0.016 | [5] -0.009 | [6] -0.022 | [7] -0.002 | [8] 0.016 | IRAK-1-4 Inhibitor I 0.01

PCLAF (UniProt Q15004)
inactive: erlotinib 0 | [1] -0.026 | [2] 0.057 | [3] -0.006 | [4] -0.059 | [5] -0.015 | [6] 0.012 | [7] 0.037 | [8] -0.052 | IRAK-1-4 Inhibitor I 0.016

PARS2 (UniProt Q7L3T8)
inactive: erlotinib 0.005 | [1] -0.126 | [2] 0.011 | [3] -0.041 | [4] 0.048 | [5] 0.003 | [6] 0.051 | [7] 0.028 | [8] 0.018 | IRAK-1-4 Inhibitor I -0.011

PC (UniProt P11498)
inactive: erlotinib 0.018 | [1] 0.005 | [2] 0.005 | [3] 0.012 | [4] 0.027 | [5] -0.009 | [6] -0.032 | [7] 0.054 | [8] -0.011 | IRAK-1-4 Inhibitor I 0.012

PEPD (UniProt P12955)
inactive: erlotinib -0.005 | [1] 0.162 | [2] 0.016 | [3] 0.004 | [4] 0.015 | [5] 0.01 | [6] 0.012 | [7] 0.01 | [8] -0.018 | IRAK-1-4 Inhibitor I 0.081

PGD (UniProt P52209)
inactive: erlotinib -0.026 | [1] -0.015 | [2] -0.005 | [3] -0.007 | [4] -0.004 | [5] 0.009 | [6] -0.026 | [7] 0.008 | [8] -0.02 | IRAK-1-4 Inhibitor I -0.004

PDLIM5 (UniProt Q96HC4)
inactive: erlotinib -0.011 | [1] -0.11 | [2] 0.038 | [3] 0.006 | [4] -0.016 | [5] 0.001 | [6] 0.008 | [7] 0.008 | [8] -0.009 | IRAK-1-4 Inhibitor I -0.017

PFKFB3 isoform 4 (UniProt Q16875)
inactive: erlotinib -0.006 | [1] -0.021 | [2] 0.028 | [3] -0.033 | [4] 0.011 | [5] -0.034 | [6] -0.035 | [7] 0.032 | [8] 0.002 | IRAK-1-4 Inhibitor I 0.004

PCYT1B (UniProt Q9Y5K3)
inactive: erlotinib -0.016 | [1] 0.015 | [2] -0.006 | [3] 0.046 | [4] -0.03 | [5] 0.002 | [6] 0.044 | [7] -0.041 | [8] -0.032 | IRAK-1-4 Inhibitor I -0.023

PDZD11 isoform 2 (UniProt Q5EBL8)
inactive: erlotinib -0.005 | [1] 0.007 | [2] 0.004 | [3] -0.024 | [4] -0.03 | [5] 0.045 | [6] 0.025 | [7] -0.034 | [8] 0.049 | IRAK-1-4 Inhibitor I -0.012

PASK (UniProt Q96RG2)
inactive: erlotinib -0.003 | [1] 0.017 | [2] 0 | [3] 0.045 | [4] 0.033 | [5] 0.021 | [6] 0.021 | [7] -0.033 | [8] 0.103 | IRAK-1-4 Inhibitor I 0.029

PDCD6IP (UniProt Q8WUM4)
inactive: erlotinib -0.016 | [1] 0.021 | [2] -0.036 | [3] 0 | [4] 0.108 | [5] 0.03 | [6] 0.013 | [7] 0.07 | [8] 0.012 | IRAK-1-4 Inhibitor I -0.094

PDCD6IP isoform 2 (UniProt Q8WUM4)
inactive: erlotinib 0.027 | [1] 0.046 | [2] 0.009 | [3] 0.01 | [4] -0.02 | [5] 0.007 | [6] -0.007 | [7] 0.002 | [8] 0.007 | IRAK-1-4 Inhibitor I -0.002

PCTP (UniProt Q9UKL6)
inactive: erlotinib 0.023 | [1] 0.057 | [2] 0.026 | [3] 0.06 | [4] 0 | [5] 0.008 | [6] -0.056 | [7] 0.002 | [8] -0.025 | IRAK-1-4 Inhibitor I 0.024

PBLD (UniProt P30039)
inactive: erlotinib 0.022 | [1] -0.038 | [2] -0.001 | [3] -0.05 | [4] -0.131 | [5] 0.029 | [6] -0.128 | [7] -0.044 | [8] -0.025 | IRAK-1-4 Inhibitor I 0.217

PDHA1 isoform 4 (UniProt P08559)
inactive: erlotinib 0.027 | [1] 0.021 | [2] 0.003 | [3] 0.016 | [4] 0.001 | [5] 0.015 | [6] -0.027 | [7] -0.01 | [8] -0.002 | IRAK-1-4 Inhibitor I -0.009

PGAM4 (UniProt Q8N0Y7)
inactive: erlotinib 0.02 | [1] -0.023 | [2] 0.031 | [3] -0.032 | [4] 0.007 | [5] -0.007 | [6] 0 | [7] 0.008 | [8] 0 | IRAK-1-4 Inhibitor I 0.04

2 records picked at random from the list so far, as already listed:
PDHA1 isoform 4 (UniProt P08559)
inactive: erlotinib 0.027 | [1] 0.021 | [2] 0.003 | [3] 0.016 | [4] 0.001 | [5] 0.015 | [6] -0.027 | [7] -0.01 | [8] -0.002 | IRAK-1-4 Inhibitor I -0.009

PGAM4 (UniProt Q8N0Y7)
inactive: erlotinib 0.02 | [1] -0.023 | [2] 0.031 | [3] -0.032 | [4] 0.007 | [5] -0.007 | [6] 0 | [7] 0.008 | [8] 0 | IRAK-1-4 Inhibitor I 0.04

Further entries:

PDIA4 (UniProt P13667)
inactive: erlotinib -0.011 | [1] 0.062 | [2] 0.005 | [3] -0.017 | [4] -0.008 | [5] 0.006 | [6] 0 | [7] 0.04 | [8] 0.007 | IRAK-1-4 Inhibitor I -0.001

PDXK (UniProt O00764)
inactive: erlotinib -0.003 | [1] 0.02 | [2] 0.103 | [3] -0.019 | [4] -0.02 | [5] -0.008 | [6] 0.021 | [7] 0.037 | [8] -0.012 | IRAK-1-4 Inhibitor I 0.018

PER3 isoform 2 (UniProt P56645)
inactive: erlotinib 0.014 | [1] 0.056 | [2] 0.001 | [3] 0.055 | [4] -0.043 | [5] 0.009 | [6] 0.038 | [7] 0.066 | [8] 0 | IRAK-1-4 Inhibitor I -0.01

PBXIP1 (UniProt Q96AQ6)
inactive: erlotinib -0.025 | [1] 0.087 | [2] 0.028 | [3] 0.092 | [4] 0.021 | [5] -0.007 | [6] -0.069 | [7] -0.026 | [8] -0.011 | IRAK-1-4 Inhibitor I -0.014

PDLIM4 (UniProt P50479)
inactive: erlotinib 0.01 | [1] -0.054 | [2] 0.007 | [3] 0.017 | [4] 0 | [5] 0.009 | [6] 0.012 | [7] -0.006 | [8] 0.01 | IRAK-1-4 Inhibitor I 0.002

PCBP2 isoform 8 (UniProt Q15366)
inactive: erlotinib 0.118 | [1] -0.287 | [2] 0.024 | [3] 0.001 | [4] -0.039 | [5] 0.087 | [6] -0.041 | [7] -0.088 | [8] 0.01 | IRAK-1-4 Inhibitor I 0.018

PDCD6 (UniProt O75340)
inactive: erlotinib -0.043 | [1] -0.036 | [2] -0.017 | [3] 0.023 | [4] 0.01 | [5] 0.007 | [6] 0.016 | [7] -0.022 | [8] 0.003 | IRAK-1-4 Inhibitor I 0.006

PDE4DIP isoform 4 (UniProt Q5VU43)
inactive: erlotinib 0.002 | [1] -0.026 | [2] 0.017 | [3] 0.004 | [4] -0.004 | [5] 0 | [6] -0.111 | [7] -0.009 | [8] 0.055 | IRAK-1-4 Inhibitor I 0.024
